System: full NCI 60 cell lines panel
Details: one dose 10^-5 M, 48 h

| Compound | Delta (one dose mean graph) | Range (one dose mean graph) |
| --- | --- | --- |
| COc1ccc(/C=N\NC(=N)c2c(N)nc(S)nc2-c2ccc(N(C)C)cc2)cc1 [Compound 4d, 4-amino-N'-[(1Z)-(4-methoxyphenyl)methylene]-6-[4-(dimethylamino)phenyl]-2-mercapto pyrimidine-5-carboximidohydrazide] | 29.35 | 47.40 |
| 4-Amino-6–(2,4-dichlorophenyl)-2-mercaptopyrimidine-5-carboximidohydrazide [Compound 2c] | 32.80 | 53.94 |
| COc1ccc(C=NNC(=N)c2c(N)nc(S)nc2-c2ccc(Cl)cc2)cc1 [Compound 4j, 4-amino-6–(4-chlorophenyl)-2-mercapto-N'-[(4-methoxyphenyl)methylene] pyrimidine-5-carboximidohydrazide] | 25.37 | 65.19 |
| CN(C)c1ccc(-c2nc(S)nc(N)c2C(=N)NN=Cc2ccc(Cl)cc2Cl)cc1 [Compound 4f, 4-amino-N'-[(2,4-dichlorophenyl)methylene]-6-[4-(dimethylamino)phenyl]-2-mercapto pyrimidine-5-carboximidohydrazide] | 31.12 | 98.59 |
| 3-Amino-4-[4-(dimethylamino)phenyl]-1H-pyrazolo[3,4-d]pyrimidine-6-thiol [Compound 3a] | 45.09 | 104.00 |
| N=C(NN=Cc1ccccc1)c1c(N)nc(S)nc1-c1ccc(Cl)cc1 [Compound 4g, 4-amino-6–(4-chlorophenyl)-2-mercapto-N'-[phenylmethylene]pyrimidine-5-carboximido hydrazide] | 85.08 | 138.92 |
| N=C(NN=Cc1ccc(Br)cc1)c1c(N)nc(S)nc1-c1ccc(Cl)cc1 [Compound 4k, 4-amino-N'-[(4-bromophenyl)methylene]-6–(4-chlorophenyl)-2-mercapto pyrimidine-5-carboximidohydrazide] | 78.03 | 120.67 |
| N=C(NN=Cc1ccc([N+](=O)[O-])cc1)c1c(N)nc(S)nc1-c1ccc(Cl)cc1Cl [Compound 4o, 4-amino-6–(2,4-dichlorophenyl)-2-mercapto-N'-[(4-nitrophenyl)methylene] pyrimidine-5-carboximidohydrazide] | 91.45 | 157.63 |
| CN(C)c1ccc(-c2nc(S)nc(N)c2C#N)cc1 [Compound 1a] | 36.37 | 70.76 |
| CN(C)c1ccc(-c2nc(S)nc(N)c2C(=N)NN=Cc2ccccc2)cc1 [Compound 4a, 4-Amino-6-[4-(dimethylamino)phenyl]-2-mercapto-N'-[phenylmethylene] pyrimidine-5-carboximidohydrazide] | 28.92 | 64.70 |
| N=C(NN=Cc1ccc(Cl)cc1Cl)c1c(N)nc(S)nc1-c1ccc(Cl)cc1 [Compound 4l, 4-amino-6–(4-chlorophenyl)-N'-[(2,4-dichlorophenyl)methylene]-2-mercapto pyrimidine-5-carboximidohydrazide] | 61.56 | 94.18 |
| CN(C)c1ccc(-c2nc(S)nc(N)c2C(=N)NN=Cc2ccc(Cl)cc2)cc1 [Compound 4b, 4-amino-N'-[(4-chlorophenyl)methylene]-6-[4-(dimethylamino)phenyl]-2-mercapto pyrimidine-5-carboximidohydrazide] | 32.83 | 71.97 |
| N=C(NN=Cc1ccc(Cl)cc1)c1c(N)nc(S)nc1-c1ccc(Cl)cc1Cl [Compound 4n, 4-Amino-N'-[(4-chlorophenyl)methylene]-6–(2,4-dichlorophenyl)-2-mercapto pyrimidine-5-carboximidohydrazide] | 32.98 | 78.90 |
| CN(C)c1ccc(-c2nc(S)nc(N)c2C(=N)NN=Cc2ccc(Br)cc2)cc1 [Compound 4e, 4-amino-N'-[(4-bromophenyl)methylene]-6-[4-(dimethylamino)phenyl]-2-mercapto pyrimidine-5-carboximidohydrazide] | 33.69 | 91.05 |
| Nc1nc(S)nc(-c2ccc(Cl)cc2Cl)c1-c1ncn[nH]1 [Compound 5c, 4-Amino-6–(2,4-dichlorophenyl)-5-(1H-1,2,4-triazol-5-yl)pyrimidine-2-thiol] | 50.41 | 70.44 |
| N=C(NN=Cc1ccc(Cl)cc1)c1c(N)nc(S)nc1-c1ccc(Cl)cc1 [Compound 4h, 4-amino-6–(4-chlorophenyl)-N'-[(4-chlorophenyl)methylene]-2-mercapto pyrimidine-5-carboximidohydrazide] | 24.76 | 55.38 |
| N=C(NN=Cc1ccc(Br)cc1)c1c(N)nc(S)nc1-c1ccc(Cl)cc1Cl [Compound 4q, 4-amino-N'-[(4-bromophenyl)methylene]-6–(2,4-dichlorophenyl)-2-mercapto pyrimidine-5-carboximidohydrazide] | 17.63 | 61.45 |
| 4-Amino-6–(4-chlorophenyl)-2-mercaptopyrimidine-5-carboximidohydrazide [Compound 2b] | 24.07 | 47.54 |
| 3-Amino-4–(4-chlorophenyl)-1H-pyrazolo[3,4-d] pyrimidine-6-thiol [Compound 3b] | 18.19 | 32.84 |
| Nc1nc(S)nc(-c2ccc(Cl)cc2)c1-c1ncn[nH]1 [Compound 5b, 4-Amino-6–(4-chlorophenyl)-5-(1H-1,2,4-triazol-5-yl)pyrimidine-2-thiol] | 23.81 | 40.25 |
| CN(C)c1ccc(-c2nc(S)nc(N)c2-c2ncn[nH]2)cc1 [Compound 5a, 4-Aamino-6-[4-(dimethylamino)phenyl]-5-(1H-1,2,4-triazol-5-yl)pyrimidine-2-thiol] | 22.98 | 46.07 |
| CN(C)c1ccc(-c2cc([N+](=O)[O-])ccc2C=NNC(=N)c2cnc(S)nc2N)cc1 [Compound 4c, 4-amino-N'-[6-[4-(dimethylamino)phenyl]-(4-nitrophenyl)methylene]-2-mercapto pyrimidine-5-carboximidohydrazide] | 27.53 | 51.30 |
| N=C(NN=Cc1ccc(Cl)cc1Cl)c1c(N)nc(S)nc1-c1ccc(Cl)cc1Cl [Compound 4r, 4-amino-6–(2,4-dichlorophenyl)-N'-[(2,4-dichlorophenyl)methylene]-2-mercapto pyrimidine-5-carboximidohydrazide] | 25.83 | 41.01 |
| 4-Amino-6-[4-(dimethylamino)phenyl]-2-mercaptopyrimidine-5-carboximidohydrazide [Compound 2a] | 35.84 | 65.10 |
| 3-Amino-4–(2,4-dichlorophenyl)-1H-pyrazolo[3,4-d] pyrimidine-6-thiol [Compound 3c] | 27.97 | 70.55 |
| N#Cc1c(N)nc(S)nc1-c1ccc(Cl)cc1Cl [Compound 1c, 4-Amino-6–(2,4-dichlorophenyl)-2-mercaptopyrimidine-5-carbonitrile] | 102.55 | 185.78 |
| N=C(NN=Cc1ccc([N+](=O)[O-])cc1)c1c(N)nc(S)nc1-c1ccc(Cl)cc1 [Compound 4i, 4-amino-6–(4-chlorophenyl)-2-mercapto-N'-[(4-nitrophenyl)methylene] pyrimidine-5-carboximidohydrazide] | 12.79 | 61.10 |
| N=C(NN=Cc1ccccc1)c1c(N)nc(S)nc1-c1ccc(Cl)cc1Cl [Compound 4m, 4-Amino-6–(2,4-dichlorophenyl)-2-mercapto-N'-[phenylmethylene]pyrimidine-5-carboximidohydrazide] | 31.90 | 70.82 |
| N#Cc1c(N)nc(S)nc1-c1ccc(Cl)cc1 [Compound 1b] | 33.47 | 84.30 |
| COc1ccc(C=NNC(=N)c2c(N)nc(S)nc2-c2ccc(Cl)cc2Cl)cc1 [Compound 4p, 4-amino-6–(2,4-dichlorophenyl)-2-mercapto-N'-[(4-methoxyphenyl)methylene] pyrimidine-5-carboximidohydrazide] | 29.12 | 67.96 |

— publication PMC10866072, “Design, synthesis, molecular modelling and biological evaluation of novel 6-amino-5-cyano-2-thiopyrimidine derivatives as potent anticancer agents against leukemia and apoptotic inducers” (Journal of Enzyme Inhibition and Medicinal Chemistry, 2024)
